Experimental data: patent publication US7754689B2, “Finger-1 peptide analogs of the TGF-β superfamily” (Wyeth LLC, priority 2006, dated 2010)
These are yes or no findings as the source states them, for the method shown. Some entries that bind do so weakly or less than the wild type.

T1: BMP-12 (UniProt Q7Z4P5 322-450, limits assumed)
T1 construct: also called BMP12/GDF7
T1 sequence (looked up): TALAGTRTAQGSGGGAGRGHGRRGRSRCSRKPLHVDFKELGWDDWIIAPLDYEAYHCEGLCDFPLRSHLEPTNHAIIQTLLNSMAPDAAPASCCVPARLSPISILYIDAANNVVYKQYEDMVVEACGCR

T2: BMP-3 (UniProt P12645)
T2 sequence (looked up): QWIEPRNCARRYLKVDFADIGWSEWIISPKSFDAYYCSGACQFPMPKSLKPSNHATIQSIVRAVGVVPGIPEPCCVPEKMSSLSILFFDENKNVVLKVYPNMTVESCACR

T3: GDF-9 (UniProt O60383)
T3 sequence (looked up): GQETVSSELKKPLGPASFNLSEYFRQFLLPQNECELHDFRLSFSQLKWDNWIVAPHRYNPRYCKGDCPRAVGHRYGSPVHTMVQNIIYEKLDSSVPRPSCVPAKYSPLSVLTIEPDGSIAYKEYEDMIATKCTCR


Columns and labels:
BMP-12 [1] = molecular target: T1, BMP-12; experiment: affinity chromatography, immobilised peptide
BMP-3 = molecular target: T2, BMP-3; experiment: affinity chromatography, immobilised peptide
GDF-9 = molecular target: T3, GDF-9; experiment: affinity chromatography, immobilised peptide
BMP-12 [2] = molecular target: T1, BMP-12; experiment: peptide resin, filter plate

Binder | binding (BMP-12 [1]) | binding (BMP-3) | binding (GDF-9) | binding (BMP-12 [2])
KELGWDDWIIAPLDYEAYHCEGLC [wild-type BMP-12 finger 1 peptide (…)] | binds | binds |  | 
SDVGWNDWIVAPPGYHAFYCHGEK (linked to sepharose beads via a C-terminal lysine) [mutant of the BMP-2 finger 1 peptide (…)] | binds | binds | binds | 
LYVDFSDVGWNDWIVAPPGYHAFYSHGEK (N-terminal acetyl (Ac-)) [BMP2 Full peptide 747] |  |  |  | binds
RDLGWQDWIIAPEGYAAFYSDGEK (N-terminal acetyl (Ac-)) [BMP5 peptide 748] |  |  |  | binds
ELGWDDWIIAPLDYEAYHSEGLK (N-terminal acetyl (Ac-)) [BMP12 N-trun_1S peptide 749] |  |  |  | binds
SDVGWNDWIVAPPGYHAFYCHGEK (N-terminal acetyl (Ac-)) [BMP2 N-trun peptide 750] |  |  |  | binds
SDVGWNDWIVAPPGYHAFYSHGEK (N-terminal acetyl (Ac-)) [BMP2 N-trun 1S peptide 751] |  |  |  | binds
